# Experimental data: patent publication EP0045334A1, “Propranolol antigen conjugates and antibodies and method of using them” (SYVA COMPANY, priority 1980, dated 1982)
# Some of these results come from one statement about several compounds together. At least one compound was matched to its structure with a doubt left.
# Tested on: antibodies
# Assay: Preliminary testing for cross-reactivity with propranolol in the enzyme immunoassay, antibody lot not specified
# Format: binding
row,Molecule,interference (cross-reactivity with propranolol)
1,"O=C(O)C(O)COc1cccc2ccccc12 (centres unmarked) [NLA, naphthoxylactic acid]",no interference
2,naphthoxyacetic acid [NAA],no interference
